Source: the supplement of paper PMC12595434, “Development of retinoid nuclear receptor pathway antagonists through targeting aldehyde dehydrogenase 1A3” (iScience, 2025)
The other results are listed elsewhere or left out. This is a noisy data set.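 Tm was set to 64 °C where no melting was found, and many curves are irregular.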

Protein sequences, listed by entry. Tags and fused reporters are not part of them. Lines headed by an entry give the natural chain unless they say otherwise; changes in a name come on top.
UniProt Q96N67: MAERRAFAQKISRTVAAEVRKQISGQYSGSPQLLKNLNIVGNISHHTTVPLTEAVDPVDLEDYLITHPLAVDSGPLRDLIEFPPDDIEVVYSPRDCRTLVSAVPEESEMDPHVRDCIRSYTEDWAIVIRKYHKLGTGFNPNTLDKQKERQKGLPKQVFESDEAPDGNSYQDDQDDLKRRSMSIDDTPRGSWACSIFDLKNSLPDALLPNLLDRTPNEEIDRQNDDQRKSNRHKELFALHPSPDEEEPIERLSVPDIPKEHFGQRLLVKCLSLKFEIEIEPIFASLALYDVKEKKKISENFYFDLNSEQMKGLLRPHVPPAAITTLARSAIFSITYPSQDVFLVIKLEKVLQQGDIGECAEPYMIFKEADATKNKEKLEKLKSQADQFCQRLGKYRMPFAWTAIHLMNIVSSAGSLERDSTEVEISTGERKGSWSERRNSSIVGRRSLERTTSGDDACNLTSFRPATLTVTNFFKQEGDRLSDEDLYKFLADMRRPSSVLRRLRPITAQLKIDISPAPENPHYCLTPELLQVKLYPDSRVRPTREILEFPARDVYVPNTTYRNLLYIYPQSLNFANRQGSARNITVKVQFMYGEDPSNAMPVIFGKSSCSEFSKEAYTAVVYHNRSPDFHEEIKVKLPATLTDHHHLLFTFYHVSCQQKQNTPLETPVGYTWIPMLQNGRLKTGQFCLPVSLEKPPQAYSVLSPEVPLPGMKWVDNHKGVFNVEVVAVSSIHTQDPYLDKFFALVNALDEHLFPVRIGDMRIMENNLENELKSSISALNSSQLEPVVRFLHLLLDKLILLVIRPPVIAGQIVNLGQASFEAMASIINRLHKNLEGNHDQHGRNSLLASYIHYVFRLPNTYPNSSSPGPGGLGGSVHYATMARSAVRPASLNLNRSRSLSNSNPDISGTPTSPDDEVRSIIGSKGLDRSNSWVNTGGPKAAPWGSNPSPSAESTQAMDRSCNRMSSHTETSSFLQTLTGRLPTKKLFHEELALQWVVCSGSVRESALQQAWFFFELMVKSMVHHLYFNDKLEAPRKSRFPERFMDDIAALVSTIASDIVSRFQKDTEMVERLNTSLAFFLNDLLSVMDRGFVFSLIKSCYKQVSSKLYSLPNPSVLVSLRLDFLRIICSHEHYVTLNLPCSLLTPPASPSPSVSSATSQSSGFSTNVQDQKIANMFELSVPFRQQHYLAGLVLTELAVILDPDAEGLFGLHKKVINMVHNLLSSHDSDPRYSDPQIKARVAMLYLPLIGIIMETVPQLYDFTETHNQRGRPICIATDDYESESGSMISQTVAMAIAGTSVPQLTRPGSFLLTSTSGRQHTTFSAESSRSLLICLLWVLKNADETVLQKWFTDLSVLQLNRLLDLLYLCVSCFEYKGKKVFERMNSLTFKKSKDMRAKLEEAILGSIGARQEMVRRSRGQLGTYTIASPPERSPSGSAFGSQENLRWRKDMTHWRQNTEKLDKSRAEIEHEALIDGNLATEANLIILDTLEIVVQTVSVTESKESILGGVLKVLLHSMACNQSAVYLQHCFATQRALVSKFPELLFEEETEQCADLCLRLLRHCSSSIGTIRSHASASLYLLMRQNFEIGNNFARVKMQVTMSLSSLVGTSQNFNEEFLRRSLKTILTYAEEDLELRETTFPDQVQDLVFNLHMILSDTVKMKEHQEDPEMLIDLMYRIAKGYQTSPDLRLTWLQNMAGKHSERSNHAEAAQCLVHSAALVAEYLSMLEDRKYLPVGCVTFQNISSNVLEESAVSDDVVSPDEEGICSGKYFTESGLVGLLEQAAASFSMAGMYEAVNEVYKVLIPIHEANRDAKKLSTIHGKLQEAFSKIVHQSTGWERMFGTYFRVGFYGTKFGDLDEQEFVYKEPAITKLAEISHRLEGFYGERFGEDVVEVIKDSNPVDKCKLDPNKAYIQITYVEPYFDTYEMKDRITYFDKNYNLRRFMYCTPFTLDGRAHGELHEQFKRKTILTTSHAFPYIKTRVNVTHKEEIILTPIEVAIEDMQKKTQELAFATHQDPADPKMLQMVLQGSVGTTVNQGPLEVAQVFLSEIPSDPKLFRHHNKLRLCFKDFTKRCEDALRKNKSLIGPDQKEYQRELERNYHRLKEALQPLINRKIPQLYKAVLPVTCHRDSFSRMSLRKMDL
UniProt Q96I51, whole entry, looked up: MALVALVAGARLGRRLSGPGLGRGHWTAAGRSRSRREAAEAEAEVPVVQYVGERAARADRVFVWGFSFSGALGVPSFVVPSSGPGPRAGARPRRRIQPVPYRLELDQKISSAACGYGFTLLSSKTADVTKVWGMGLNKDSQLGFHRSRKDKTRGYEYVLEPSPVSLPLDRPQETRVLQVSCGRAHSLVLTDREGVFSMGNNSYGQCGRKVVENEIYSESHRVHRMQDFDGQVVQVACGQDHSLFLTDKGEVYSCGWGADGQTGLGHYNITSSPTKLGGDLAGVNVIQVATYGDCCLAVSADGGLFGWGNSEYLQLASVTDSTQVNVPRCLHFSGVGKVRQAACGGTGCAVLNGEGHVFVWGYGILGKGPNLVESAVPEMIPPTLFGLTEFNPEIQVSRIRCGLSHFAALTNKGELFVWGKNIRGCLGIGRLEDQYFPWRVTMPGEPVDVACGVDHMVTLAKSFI
UniProt Q96TA2: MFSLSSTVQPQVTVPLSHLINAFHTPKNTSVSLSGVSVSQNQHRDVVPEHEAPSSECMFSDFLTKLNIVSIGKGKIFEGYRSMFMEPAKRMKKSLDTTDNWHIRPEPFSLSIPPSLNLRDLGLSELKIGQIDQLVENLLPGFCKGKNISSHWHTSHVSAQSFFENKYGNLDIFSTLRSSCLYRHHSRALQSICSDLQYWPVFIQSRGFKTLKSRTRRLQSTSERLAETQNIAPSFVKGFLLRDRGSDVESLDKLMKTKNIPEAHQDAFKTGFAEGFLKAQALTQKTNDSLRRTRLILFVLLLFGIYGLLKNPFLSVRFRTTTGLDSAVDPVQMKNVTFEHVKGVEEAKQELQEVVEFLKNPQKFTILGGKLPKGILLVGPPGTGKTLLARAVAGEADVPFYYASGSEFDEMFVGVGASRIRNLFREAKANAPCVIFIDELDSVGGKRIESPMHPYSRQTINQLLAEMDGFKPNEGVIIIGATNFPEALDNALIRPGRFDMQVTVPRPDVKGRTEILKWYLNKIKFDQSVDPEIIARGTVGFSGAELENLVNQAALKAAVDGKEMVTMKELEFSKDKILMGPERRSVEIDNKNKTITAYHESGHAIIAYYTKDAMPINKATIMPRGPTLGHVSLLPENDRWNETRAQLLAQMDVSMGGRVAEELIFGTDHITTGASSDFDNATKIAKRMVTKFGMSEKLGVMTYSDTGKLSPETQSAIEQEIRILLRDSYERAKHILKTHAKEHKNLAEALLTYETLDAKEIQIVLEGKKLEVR
UniProt Q96LA8, whole entry, looked up: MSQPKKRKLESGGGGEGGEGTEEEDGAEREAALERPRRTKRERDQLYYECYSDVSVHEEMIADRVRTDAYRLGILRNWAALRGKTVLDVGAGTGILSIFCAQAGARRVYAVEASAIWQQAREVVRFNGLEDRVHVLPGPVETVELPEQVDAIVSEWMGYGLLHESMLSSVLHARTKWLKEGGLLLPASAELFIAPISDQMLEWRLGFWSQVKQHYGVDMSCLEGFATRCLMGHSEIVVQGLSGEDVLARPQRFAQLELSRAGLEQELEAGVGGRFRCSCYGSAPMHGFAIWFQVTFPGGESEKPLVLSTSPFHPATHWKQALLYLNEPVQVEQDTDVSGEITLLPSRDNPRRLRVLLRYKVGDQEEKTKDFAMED
UniProt Q96J01: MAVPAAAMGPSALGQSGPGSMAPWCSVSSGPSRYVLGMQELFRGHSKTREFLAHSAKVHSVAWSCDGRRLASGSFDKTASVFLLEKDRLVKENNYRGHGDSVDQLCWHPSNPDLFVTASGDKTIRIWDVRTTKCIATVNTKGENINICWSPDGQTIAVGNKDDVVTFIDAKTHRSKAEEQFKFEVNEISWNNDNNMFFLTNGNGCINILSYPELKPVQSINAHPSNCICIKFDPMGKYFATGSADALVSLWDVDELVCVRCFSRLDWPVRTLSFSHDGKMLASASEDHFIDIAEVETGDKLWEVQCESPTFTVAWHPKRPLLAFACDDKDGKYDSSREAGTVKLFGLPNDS
UniProt Q96QD8: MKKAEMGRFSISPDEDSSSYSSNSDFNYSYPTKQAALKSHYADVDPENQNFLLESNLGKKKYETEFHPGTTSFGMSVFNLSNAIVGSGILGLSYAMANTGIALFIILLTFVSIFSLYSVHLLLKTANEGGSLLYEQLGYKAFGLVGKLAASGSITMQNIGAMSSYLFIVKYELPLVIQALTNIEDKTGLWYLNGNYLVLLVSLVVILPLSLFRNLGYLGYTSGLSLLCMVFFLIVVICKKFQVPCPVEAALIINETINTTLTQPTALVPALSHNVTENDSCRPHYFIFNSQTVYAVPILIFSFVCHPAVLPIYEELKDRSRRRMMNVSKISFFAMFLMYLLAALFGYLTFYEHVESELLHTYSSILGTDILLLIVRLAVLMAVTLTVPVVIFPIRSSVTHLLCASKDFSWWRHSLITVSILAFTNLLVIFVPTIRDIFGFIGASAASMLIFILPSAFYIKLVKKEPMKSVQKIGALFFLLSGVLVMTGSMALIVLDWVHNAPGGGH
UniProt Q96K37: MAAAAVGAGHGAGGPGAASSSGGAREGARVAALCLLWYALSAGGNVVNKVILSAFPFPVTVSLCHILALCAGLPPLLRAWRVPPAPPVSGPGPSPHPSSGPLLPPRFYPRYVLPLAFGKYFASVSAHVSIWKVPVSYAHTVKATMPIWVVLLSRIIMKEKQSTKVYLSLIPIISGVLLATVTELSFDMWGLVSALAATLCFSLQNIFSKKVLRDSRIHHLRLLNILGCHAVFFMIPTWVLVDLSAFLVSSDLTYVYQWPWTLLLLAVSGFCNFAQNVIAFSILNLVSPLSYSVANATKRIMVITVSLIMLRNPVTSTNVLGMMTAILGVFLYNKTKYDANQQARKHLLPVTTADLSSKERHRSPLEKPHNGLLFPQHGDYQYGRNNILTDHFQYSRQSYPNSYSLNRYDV
UniProt Q96SB4, whole entry: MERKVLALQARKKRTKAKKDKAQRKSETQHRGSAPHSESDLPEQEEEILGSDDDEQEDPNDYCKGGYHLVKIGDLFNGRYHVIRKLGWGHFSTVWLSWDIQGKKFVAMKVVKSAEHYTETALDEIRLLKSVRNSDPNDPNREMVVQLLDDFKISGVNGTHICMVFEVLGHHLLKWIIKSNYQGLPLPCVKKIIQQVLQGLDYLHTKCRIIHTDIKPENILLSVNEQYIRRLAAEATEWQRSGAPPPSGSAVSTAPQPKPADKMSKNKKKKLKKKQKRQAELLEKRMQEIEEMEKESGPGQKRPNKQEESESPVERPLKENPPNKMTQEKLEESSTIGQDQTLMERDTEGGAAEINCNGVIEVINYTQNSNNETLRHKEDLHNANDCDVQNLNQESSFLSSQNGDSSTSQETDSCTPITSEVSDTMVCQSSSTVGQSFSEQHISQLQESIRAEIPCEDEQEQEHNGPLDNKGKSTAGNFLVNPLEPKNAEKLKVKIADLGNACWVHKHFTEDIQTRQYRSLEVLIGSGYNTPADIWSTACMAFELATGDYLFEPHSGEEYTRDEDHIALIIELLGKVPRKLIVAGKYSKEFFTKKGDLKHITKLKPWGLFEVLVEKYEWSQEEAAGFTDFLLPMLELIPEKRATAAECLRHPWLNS
UniProt Q96NB2: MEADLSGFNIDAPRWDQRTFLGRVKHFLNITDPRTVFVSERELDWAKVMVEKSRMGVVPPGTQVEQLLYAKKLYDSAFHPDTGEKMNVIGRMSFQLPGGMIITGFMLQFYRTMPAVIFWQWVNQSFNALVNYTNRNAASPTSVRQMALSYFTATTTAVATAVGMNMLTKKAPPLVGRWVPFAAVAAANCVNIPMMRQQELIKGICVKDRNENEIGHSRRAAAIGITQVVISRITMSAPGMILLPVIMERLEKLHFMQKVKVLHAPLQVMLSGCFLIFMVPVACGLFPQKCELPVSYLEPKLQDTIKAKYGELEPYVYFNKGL
UniProt Q96FN4: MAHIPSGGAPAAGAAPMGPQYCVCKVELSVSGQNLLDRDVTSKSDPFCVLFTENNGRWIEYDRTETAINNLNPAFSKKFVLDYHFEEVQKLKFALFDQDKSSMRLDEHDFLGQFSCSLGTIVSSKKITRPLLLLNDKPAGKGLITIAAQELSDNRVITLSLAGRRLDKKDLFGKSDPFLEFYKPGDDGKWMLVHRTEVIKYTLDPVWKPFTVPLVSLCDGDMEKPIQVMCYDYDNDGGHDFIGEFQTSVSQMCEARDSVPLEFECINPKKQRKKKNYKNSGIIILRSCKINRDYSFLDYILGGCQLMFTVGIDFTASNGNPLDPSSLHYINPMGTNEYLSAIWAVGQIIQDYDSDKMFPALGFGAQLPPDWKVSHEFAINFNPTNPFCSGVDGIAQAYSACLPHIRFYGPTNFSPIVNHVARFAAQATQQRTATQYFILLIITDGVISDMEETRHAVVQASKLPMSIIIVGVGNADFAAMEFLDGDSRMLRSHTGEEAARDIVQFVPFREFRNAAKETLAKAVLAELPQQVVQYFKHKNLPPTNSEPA

Compound: CCc1cnccc1C(=O)Nc1cc2c(cc1F)NC(=O)CC2
Assay: melting temperature shift (DMSO Tm minus MBE1-treated Tm) in cellular thermal proteome profiling; higher = less thermal stabilization by MBE1 (negative = stabilized by MBE1)
Conditions: A375

Row | Target | melting temperature shift (MBE1 concentration: 100 nM) | melting temperature shift (MBE1 concentration: 1 uM)
1 | CLPTM1L (UniProt Q96KA5) | -0.0427 °C | 0.507 °C
2 | UniProt Q96T21 | -1.03 °C | -0.497 °C
3 | UniProt Q96KM6 | -0.296 °C | 0.679 °C
4 | ARAP1 (UniProt Q96P48) | -0.76 °C | -0.08 °C
5 | TBCB (UniProt Q99426) | 0.0366 °C | -0.452 °C
6 | OSBPL9 (UniProt Q96SU4) | -0.748 °C | -0.499 °C
7 | LYSMD1 (UniProt Q96S90) | -1.43 °C | 0.0611 °C
8 | RBM17 (UniProt Q96I25) | -0.593 °C | -0.819 °C
9 | UniProt Q96RT6 | 0.391 °C | -0.721 °C
10 | DOCK7 (UniProt Q96N67) | -0.565 °C | -0.205 °C
11 | AHCYL2 (UniProt Q96HN2) | -0.715 °C | -0.268 °C
12 | UIMC1 (UniProt Q96RL1) | -1.26 °C | 1.47 °C
13 | SNF8 (UniProt Q96H20) | -0.919 °C | 0.0672 °C
14 | UniProt Q96FF9 | -0.0335 °C | 1.18 °C
15 | SDSL (UniProt Q96GA7) | -1.18 °C | -0.0532 °C
16 | UniProt Q96RK4 | 0.0244 °C | -2.04 °C
17 | RBM15 (UniProt Q96T37) | -0.154 °C | -0.372 °C
18 | DTNBP1 (UniProt Q96EV8) | -1.03 °C | 1.29 °C
19 | UniProt Q96H22 | -1.65 °C | -2.63 °C
20 | S100A16 (UniProt Q96FQ6) | -2.06 °C | -2.34 °C
21 | CERS2 (UniProt Q96G23) | 0.122 °C | 0.605 °C
22 | FAHD2A (UniProt Q96GK7) | -2.19 °C | -1.36 °C
23 | UniProt Q96NE9 | 0.0488 °C | -0.342 °C
24 | ZFP91 (UniProt Q96JP5) | -0.409 °C | 1.06 °C

Row | Target | melting temperature shift (MBE1 concentration: 100 nM) | melting temperature shift (MBE1 concentration: 1 uM)
25 | UniProt Q96RF0 | -0.575 °C | -0.74 °C
26 | NACC1 (UniProt Q96RE7) | -0.805 °C | -0.0941 °C
27 | KIRREL (UniProt Q96J84) | -0.545 °C | -0.599 °C
28 | PCYT2 (UniProt Q99447) | -0.597 °C | 0.342 °C
29 | WDR34 (UniProt Q96EX3) | 1.12 °C | 0.574 °C
30 | MCCC1 (UniProt Q96RQ3) | 0.372 °C | 0.55 °C
31 | QKI (UniProt Q96PU8) | -1.67 °C | -0.541 °C
32 | CFAP36 (UniProt Q96G28) | -1.31 °C | -1.55 °C
33 | DNAJC1 (UniProt Q96KC8) | 0.464 °C | 0.659 °C
34 | UniProt Q96IK1 | -3.82 °C | -3.72 °C
35 | FAM129B (UniProt Q96TA1) | -0.496 °C | 0.244 °C
36 | PTCD3 (UniProt Q96EY7) | 0.775 °C | 0.311 °C
37 | TRMT61A (UniProt Q96FX7) | -0.0177 °C | -0.421 °C
38 | UniProt Q99502 | -1.39 °C | -1.03 °C
39 | BICD1 (UniProt Q96G01) | -0.286 °C | -0.259 °C
40 | MRPS24 (UniProt Q96EL2) | -0.281 °C | -0.501 °C
41 | UniProt Q96Q07 | 0.63 °C | 1.12 °C
42 | ELMO2 (UniProt Q96JJ3) | 0.198 °C | -0.0329 °C
43 | NUDCD1 (UniProt Q96RS6) | 0.458 °C | 0.775 °C
44 | UniProt Q96LZ7 | 0.733 °C | -0.0672 °C
45 | LRCH3 (UniProt Q96II8) | -0.743 °C | -0.499 °C
46 | SORT1 (UniProt Q99523) | -1.02 °C | -0.833 °C
47 | RPRD1A (UniProt Q96P16) | -1.33 °C | 0.506 °C
48 | SIN3A (UniProt Q96ST3) | -0.666 °C | -0.141 °C

Row | Target | melting temperature shift (MBE1 concentration: 100 nM) | melting temperature shift (MBE1 concentration: 1 uM)
49 | UniProt Q96QD9 | -0.122 °C | 0.605 °C
50 | ZC3HAV1L (UniProt Q96H79) | 1.28 °C | -0.128 °C
51 | RBM33 (UniProt Q96EV2) | -1.52 °C | -0.485 °C
52 | WDFY2 (UniProt Q96P53) | -2.3 °C | -3.55 °C
53 | NSL1 (UniProt Q96IY1) | -0.361 °C | -0.193 °C
54 | STAMBPL1 (UniProt Q96FJ0) | -0.0183 °C | -0.269 °C
55 | NSMCE2 (UniProt Q96MF7) | -0.953 °C | -0.684 °C
56 | INTS4 (UniProt Q96HW7) | -0.456 °C | 0.188 °C
57 | CLIC6 (UniProt Q96NY7) | -2.29 °C | 2.41 °C
58 | TUBGCP5 (UniProt Q96RT8) | -0.366 °C | -0.885 °C
59 | WBSCR16 (UniProt Q96I51) | -0.756 °C | 0.641 °C
60 | ITCH (UniProt Q96J02) | 0.188 °C | 0.0188 °C
61 | MYO19 (UniProt Q96H55) | 0.299 °C | 0.177 °C
62 | UniProt Q96PV6 | -0.833 °C | -0.963 °C
63 | C17ORF59 (UniProt Q96GS4) | -1.14 °C | 0.299 °C
64 | UniProt Q96NL6 | 0.309 °C | 2.33 °C
65 | ADO (UniProt Q96SZ5) | -1.41 °C | -1.97 °C
66 | UniProt Q96G21 | 0.916 °C | 0.0977 °C
67 | C16ORF13 (UniProt Q96S19) | 0.305 °C | -0.116 °C
68 | HPDL (UniProt Q96IR7) | -1.56 °C | -0.309 °C
69 | UniProt Q96LT7 | -2.03 °C | -0.352 °C
70 | YME1L1 (UniProt Q96TA2) | -0.442 °C | -0.194 °C
71 | CHMP6 (UniProt Q96FZ7) | -0.498 °C | -0.711 °C
72 | UniProt Q96PZ2 | 0.55 °C | -0.195 °C

Row | Target | melting temperature shift (MBE1 concentration: 100 nM) | melting temperature shift (MBE1 concentration: 1 uM)
73 | MED15 (UniProt Q96RN5) | -0.391 °C | 0.916 °C
74 | TMX3 (UniProt Q96JJ7) | -0.778 °C | 0.677 °C
75 | PFDN5 (UniProt Q99471) | -0.961 °C | -1.63 °C
76 | UniProt Q96EW2 | -0.0671 °C | 0.604 °C
77 | ERO1A (UniProt Q96HE7) | -0.738 °C | -0.208 °C
78 | NARS2 (UniProt Q96I59) | -0.837 °C | -0.461 °C
79 | MBOAT7 (UniProt Q96N66) | -0.532 °C | 0.611 °C
80 | VWA9 (UniProt Q96SY0) | -0.0488 °C | 0.653 °C
81 | IWS1 (UniProt Q96ST2) | -0.866 °C | -0.493 °C
82 | UHRF1 (UniProt Q96T88) | -0.192 °C | -0.474 °C
83 | UniProt Q96G97 | 0.523 °C | 1.5 °C
84 | PGM2 (UniProt Q96G03) | -1.18 °C | -0.932 °C
85 | MARS2 (UniProt Q96GW9) | -1.48 °C | 0.861 °C
86 | UniProt Q96K19 | 0.0488 °C | 0.745 °C
87 | PRMT6 (UniProt Q96LA8) | 0.0488 °C | -0.0604 °C
88 | THOC3 (UniProt Q96J01) | 0.995 °C | -0.788 °C
89 | PPP1R10 (UniProt Q96QC0) | 0.11 °C | 0.629 °C
90 | UniProt Q96LW4 | -0.115 °C | -0.365 °C
91 | ABHD14B (UniProt Q96IU4) | 0.293 °C | 0.488 °C
92 | SCRN2 (UniProt Q96FV2) | 0.452 °C | -0.171 °C
93 | SLC38A2 (UniProt Q96QD8) | -1.56 °C | -0.59 °C
94 | UniProt Q96L73 | 0.0256 °C | -1.35 °C
95 | DHRS1 (UniProt Q96LJ7) | 0.458 °C | 1.17 °C
96 | CCDC97 (UniProt Q96F63) | -0.546 °C | -1.09 °C

Copied from the list.
Entry of MRPS24 (UniProt Q96EL2) under melting temperature shift (MBE1 concentration: 1 uM): -0.501 °C
Entry of SLC38A2 (UniProt Q96QD8) under melting temperature shift (MBE1 concentration: 100 nM): -1.56 °C
Entry of FAM129B (UniProt Q96TA1) under melting temperature shift (MBE1 concentration: 1 uM): 0.244 °C
Entry of MCCC1 (UniProt Q96RQ3) under melting temperature shift (MBE1 concentration: 100 nM): 0.372 °C
Entry of WDFY2 (UniProt Q96P53) under melting temperature shift (MBE1 concentration: 1 uM): -3.55 °C

Next part:

Row | Target | melting temperature shift (MBE1 concentration: 100 nM) | melting temperature shift (MBE1 concentration: 1 uM)
97 | RMDN3 (UniProt Q96TC7) | 0.702 °C | 0.415 °C
98 | UniProt Q96MY1 | -4.33 °C | -3.63 °C
99 | SLC35E1 (UniProt Q96K37) | 0.189 °C | 0.779 °C
100 | UniProt Q96SB3 | -1.03 °C | -0.847 °C
101 | WDR92 (UniProt Q96MX6) | 2.05 °C | 1.19 °C
102 | NGLY1 (UniProt Q96IV0) | 0 °C | 0.231 °C
103 | WDR89 (UniProt Q96FK6) | -1.61 °C | 0.0738 °C
104 | UniProt Q96Q83 | -0.733 °C | 1.72 °C
105 | PAFAH2 (UniProt Q99487) | -0.829 °C | -0.165 °C
106 | RUFY1 (UniProt Q96T51) | -0.616 °C | -0.979 °C
107 | UniProt Q96ME7 | -0.529 °C | -0.527 °C
108 | UniProt Q96MU7 | -0.725 °C | -0.828 °C
109 | NEDD4L (UniProt Q96PU5) | -0.311 °C | -0.268 °C
110 | THOC1 (UniProt Q96FV9) | -0.438 °C | -0.748 °C
111 | SRPK1 (UniProt Q96SB4) | 0.44 °C | 0.867 °C
112 | UniProt Q96LI5 | -0.0977 °C | 0.0183 °C
113 | CARD19 (UniProt Q96LW7) | -0.704 °C | -0.168 °C
114 | TMA16 (UniProt Q96EY4) | -0.981 °C | 1.29 °C
115 | UniProt Q96NB2 | -0.738 °C | -0.101 °C
116 | UniProt Q96JN0 | -3.59 °C | -2.79 °C
117 | UniProt Q96FN4 | 1.23 °C | 0.751 °C
118 | NSUN5 (UniProt Q96P11) | -0.429 °C | -0.32 °C
119 | NSMCE3 (UniProt Q96MG7) | 0.336 °C | 0.543 °C
120 | UniProt Q96QT4 | -7.49 °C | -2.71 °C
